# Reference: PubChem BioAssay AID1508600 (Functional Genomics Laboratory (NCATS/FGL), 2020)
# Among all 53,000 sequences or so, about 3,700 (7%) were called active.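 How the source made its calls: active means gene knockdowns whose robust z-score for IL-1 alpha signal is at least 2 or at most -2, so actives lie on both sides; inactive means the rest.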 The list shows a part of the results.
# Assay: Components of the Cytosolic LPS Sensing Pathway: Gene Identification via Genome-wide siRNA Screen;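 further: robust z of the log signal after scaling to non-targeting control siRNA wells of the plate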
# Conditions: RAW264.7 macrophages, IL-1a HTRF, actives lie on both sides, screened at 100 nM (by protocol), cells primed 5 h with Pam3CSK4 first
# Outline: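 Cells (RAW264.7, 1×10^4 per well) were transfected with siRNA at 100 nM and cultured 48h at 37 degrees C. Pam3CSK4 was added for 5 hours; LipidA transfection followed for 24 hour. IL-1a was then measured by HTRF.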
row,Sequence,z-score
1,GGAAGUAGAUUAGAUGGUATT against Akt3,inactive: 0.52
2,GGUCAGAAAUUCUAAGUUGTT against Gpatch2,inactive: 1.09
3,GGUGAAUCUAUUUACCUGCTT against Fam71d,inactive: 0.317
4,GGUGGAAUCUCCUGAGAGUTT against Smarcd2,inactive: -0.521
5,CCUCACCUAUGGCUAUGUCTT against Itga5,inactive: -0.926
6,UUCCAAUCCACAUAUGUUUTT against Tusc1,inactive: 0.495
7,GGAAAAACAUGUACAAAGATT against Xdh,inactive: -0.6
8,GCCUUUUAAUAGAUGUCAUTT against Vta1,inactive: -0.201
9,CCAUGUGACAGCAUUGUUGTT against Axin1,inactive: 0.754
10,GGGCUUUUAUGUUUAACUUTT against Itpr3,inactive: 0.927
11,GCUGGCUCUAAUACCCAUCTT against Mfsd3,inactive: -0.332
12,GGGUUUUGCAUUACACAAGTT against Notch3,inactive: 1.04
13,GGCAAGAAGUCUGACAACATT against Gng4,inactive: -0.587
14,GGCAAGAUCAAAGAGAAGATT against Psmc3ip,inactive: 0.0145
15,GGAGACUCUACUAAUCAUCTT against Pigh,inactive: -0.157
16,GUCUAGCACAUUCUUUGGCTT against Olfr1107,inactive: -1.27
17,GGUCAGAUUCGGAAACCAGTT against Ccdc59,inactive: 0.173
18,GGGCAAUUUCAAACUAUUATT against Myf5,inactive: 1.48
19,GCCUGUAGUCAGAUAUUUCTT against Hdgf,inactive: -0.109
20,CGGAGUUGAGCCAGAAAAATT against Fbxo31,inactive: -0.777
21,CUCUGGUUCCUAUUAGUAGTT against Vmn1r93,inactive: 0.272
22,GGGCCAAAUAGCUAUGCAGTT against Aldoc,inactive: -0.309
23,GGUGUGGAUGUGGUUUUAUTT against Atp5l,inactive: 0.731
24,GGGCAUUGUCAUGGAGAAUTT against Clstn3,inactive: -0.455
25,CGCAUGUGGAAAUGUAACATT against Kbtbd4,inactive: 0.31
26,CGGGUGAUGUCAAGUUACUTT against Amy1,inactive: -0.335
27,GGCAGAGGCCUUGUGUUUATT against Piwil2,inactive: 1.86

# Looked up one by one from the entries so far (2):
row,Sequence,z-score
19,GCCUGUAGUCAGAUAUUUCTT against Hdgf,inactive: -0.109
21,CUCUGGUUCCUAUUAGUAGTT against Vmn1r93,inactive: 0.272

# Later entries.

row,Sequence,z-score
1,GGUGAAUGUGUGGAUUAUCTT against Itih2,inactive: -0.684
2,GCCCACACUUGCUAAUGAATT against Ppp1r26,inactive: 0.468
3,CCGAAAAGUGUGGCGAGAATT against Arid3c,inactive: -0.285
4,GGCUCUCUUCGGGAAUACUTT against Tmem234,inactive: 1.22
5,GGACUCAGGGACCUUAUUATT against Apobec1,inactive: 0.443
6,GGUGAAGUCUGUGAGCAUUTT against Gna12,inactive: 0.104
7,GGAGAUUGGUGUUAGUAACTT against Sp7,inactive: -0.198
8,GCAAUUCCUGGACAUUUAATT against Prkcd,inactive: -0.522
9,GACAUACCAGCCGUAUAACTT against Erh,active: -2.39
10,GGAAGAAAGAGAAAACCUCTT against Slc4a3,inactive: -0.0414
11,GGAUUUGUCACCAUUCUGCTT against Peg10,inactive: -0.0257
12,GGCAUGUUUCUUGACUUAATT against Coil,inactive: 0.122
13,GCCGGUUAUUUAUUUGUCATT against Sostdc1,inactive: -0.482
14,CGAAUGUCCUGGAAGCAAATT against Olfr142,inactive: -0.0904
15,GGAUUGGUUAUCAGGGCUATT against Rps19bp1,inactive: -0.53
16,GGAACCUAACUAACAAUACTT against Rab14,inactive: 0.584
17,GGCUUGAGUUUGAAGAAAUTT against Rb1,inactive: -0.0607
18,GGUUUUCUCUAAGCUGAAATT against Lum,inactive: -1
19,GGGUAAAGGAGAUUGUGAUTT against Ppfibp2,inactive: -0.103
20,GGACAGGUGGUUACCAUAGTT against Arid2,inactive: -0.251
21,CCCAAGACUGGUCUUCCCATT against Slc12a8,inactive: -1.98
22,CGAAUAUGGUAUUCACUCATT against Skint4,inactive: 0.157
23,GCAGCUUGUGCAUAUUUGATT against A3galt2,inactive: -0.834
24,CCACAAAGAAUGCAUUACUTT against Eml3,inactive: -0.912
25,GCAGAACCUUAAAAGAAUGTT against Cabyr,inactive: -0.426
26,GGUCAAAGUGAUGCACGCCTT against Sfxn2,inactive: 0.798
